# In the supplement of paper PMC6411743:
# ± gives the standard deviation of the averaged measurements. The list shows a part of the results, in another mix than the full data.
# Legend:
# Assay in all cases: NP40-soluble protein abundance relative to vehicle (solubility fold change) (ratio); higher = more soluble protein in presence of AMP-PNP
# [1] = biological target: T1, UniProt Q15813 and related entries
# T1 sequence (whole entry): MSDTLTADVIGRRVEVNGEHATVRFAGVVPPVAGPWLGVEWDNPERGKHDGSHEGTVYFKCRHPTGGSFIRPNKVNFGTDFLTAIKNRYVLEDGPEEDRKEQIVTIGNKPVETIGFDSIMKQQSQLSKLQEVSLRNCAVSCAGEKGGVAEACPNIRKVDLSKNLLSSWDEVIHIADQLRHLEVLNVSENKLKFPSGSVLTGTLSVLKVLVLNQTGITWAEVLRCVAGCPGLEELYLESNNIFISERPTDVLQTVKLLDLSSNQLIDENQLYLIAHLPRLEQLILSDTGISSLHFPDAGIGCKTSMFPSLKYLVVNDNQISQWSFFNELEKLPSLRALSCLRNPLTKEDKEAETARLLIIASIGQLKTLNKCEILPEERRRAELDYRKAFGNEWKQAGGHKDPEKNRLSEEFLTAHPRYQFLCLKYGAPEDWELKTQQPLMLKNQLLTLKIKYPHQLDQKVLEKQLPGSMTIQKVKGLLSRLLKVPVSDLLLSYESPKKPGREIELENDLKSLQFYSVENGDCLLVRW
# In short: (§1)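 Jurkat crude lysate prepared with a Dounce homogeniser was treated at eight concentrations spanning 0.1 to 10 mM, 10 min at room temperature then 3 min at 37 °C. Solubilisation with 0.8% NP40 and benzonase and ultracentrifugation preceded TMT labelling of the supernatant for LC-MS/MS. Fold change against the detergent-processed vehicle was determined per replicate from vsn-normalised intensities, across three independent experiments.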
# UniProt Q16514-2|Q16514 = biological target: T2, UniProt Q16514-2|Q16514
# T2 sequence (whole entry): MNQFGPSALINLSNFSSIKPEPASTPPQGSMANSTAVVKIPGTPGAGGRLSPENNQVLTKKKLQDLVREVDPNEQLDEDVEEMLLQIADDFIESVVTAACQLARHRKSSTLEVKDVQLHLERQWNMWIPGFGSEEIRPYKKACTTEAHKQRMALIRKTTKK
# In short: as §1
# [2] = biological target: T3, UniProt Q2KHR2 and related entries
# T3 sequence (whole entry): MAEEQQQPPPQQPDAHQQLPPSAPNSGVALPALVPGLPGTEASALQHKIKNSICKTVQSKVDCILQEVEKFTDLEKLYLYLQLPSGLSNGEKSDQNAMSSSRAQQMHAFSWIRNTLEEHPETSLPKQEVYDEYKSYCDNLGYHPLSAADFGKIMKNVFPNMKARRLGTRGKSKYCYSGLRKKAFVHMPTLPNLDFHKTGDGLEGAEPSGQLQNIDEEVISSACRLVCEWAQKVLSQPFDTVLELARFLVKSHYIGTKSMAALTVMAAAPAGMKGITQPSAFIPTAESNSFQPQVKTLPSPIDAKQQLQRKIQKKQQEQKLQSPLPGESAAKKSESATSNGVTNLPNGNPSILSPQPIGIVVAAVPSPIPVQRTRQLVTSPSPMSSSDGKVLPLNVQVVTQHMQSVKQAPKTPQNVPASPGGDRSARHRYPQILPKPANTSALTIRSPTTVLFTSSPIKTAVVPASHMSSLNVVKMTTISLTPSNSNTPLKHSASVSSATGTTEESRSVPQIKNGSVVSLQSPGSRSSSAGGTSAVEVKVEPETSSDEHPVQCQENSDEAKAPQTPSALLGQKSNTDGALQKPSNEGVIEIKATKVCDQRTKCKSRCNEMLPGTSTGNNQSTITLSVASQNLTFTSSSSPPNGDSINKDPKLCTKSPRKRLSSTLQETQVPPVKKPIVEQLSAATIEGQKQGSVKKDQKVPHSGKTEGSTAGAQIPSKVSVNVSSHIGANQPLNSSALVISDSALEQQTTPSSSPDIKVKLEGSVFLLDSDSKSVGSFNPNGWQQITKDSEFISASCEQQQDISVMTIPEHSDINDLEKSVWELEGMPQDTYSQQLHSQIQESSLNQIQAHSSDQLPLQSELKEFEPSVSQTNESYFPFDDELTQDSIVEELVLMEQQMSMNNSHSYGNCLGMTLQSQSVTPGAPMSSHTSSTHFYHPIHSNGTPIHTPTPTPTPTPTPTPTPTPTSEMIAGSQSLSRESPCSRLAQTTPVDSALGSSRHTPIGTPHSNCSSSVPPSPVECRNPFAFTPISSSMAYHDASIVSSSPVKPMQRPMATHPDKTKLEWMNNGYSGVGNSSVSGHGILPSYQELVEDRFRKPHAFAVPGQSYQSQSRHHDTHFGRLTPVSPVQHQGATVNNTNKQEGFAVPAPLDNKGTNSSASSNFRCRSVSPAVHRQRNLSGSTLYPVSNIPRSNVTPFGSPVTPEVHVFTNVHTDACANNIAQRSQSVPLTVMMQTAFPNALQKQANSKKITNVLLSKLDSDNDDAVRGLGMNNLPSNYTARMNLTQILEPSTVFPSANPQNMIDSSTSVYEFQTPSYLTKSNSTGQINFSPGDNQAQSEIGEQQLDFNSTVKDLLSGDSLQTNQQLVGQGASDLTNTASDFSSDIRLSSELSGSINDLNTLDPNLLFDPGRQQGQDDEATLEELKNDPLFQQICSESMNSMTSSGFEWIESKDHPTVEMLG
# In short: as §1
# [3] = biological target: T4, UniProt Q58A45 and related entries
# T4 sequence (whole entry): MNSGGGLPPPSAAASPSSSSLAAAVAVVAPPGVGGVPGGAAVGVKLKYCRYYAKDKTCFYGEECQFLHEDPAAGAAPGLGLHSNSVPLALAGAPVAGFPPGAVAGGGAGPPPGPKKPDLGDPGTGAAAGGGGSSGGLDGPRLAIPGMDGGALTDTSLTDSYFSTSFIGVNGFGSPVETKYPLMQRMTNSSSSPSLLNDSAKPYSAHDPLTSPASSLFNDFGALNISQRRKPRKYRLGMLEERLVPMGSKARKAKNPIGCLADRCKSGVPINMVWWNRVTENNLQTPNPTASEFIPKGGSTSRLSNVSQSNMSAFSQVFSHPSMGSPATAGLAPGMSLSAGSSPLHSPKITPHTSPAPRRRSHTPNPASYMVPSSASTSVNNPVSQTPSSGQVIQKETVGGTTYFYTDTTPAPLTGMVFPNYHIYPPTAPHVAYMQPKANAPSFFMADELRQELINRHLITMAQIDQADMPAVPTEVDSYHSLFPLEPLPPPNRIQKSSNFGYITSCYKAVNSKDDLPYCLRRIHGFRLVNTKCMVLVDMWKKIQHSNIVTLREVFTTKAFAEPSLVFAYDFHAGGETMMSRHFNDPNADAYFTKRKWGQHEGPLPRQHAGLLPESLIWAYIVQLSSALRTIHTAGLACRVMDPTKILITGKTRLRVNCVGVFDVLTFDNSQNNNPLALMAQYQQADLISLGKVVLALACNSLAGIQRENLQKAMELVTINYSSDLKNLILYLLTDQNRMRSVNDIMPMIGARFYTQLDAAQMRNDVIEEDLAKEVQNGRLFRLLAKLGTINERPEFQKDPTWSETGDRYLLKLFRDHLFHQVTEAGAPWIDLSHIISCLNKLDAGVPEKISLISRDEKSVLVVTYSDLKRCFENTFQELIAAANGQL
# In short: as §1
smiles,measurement,setting,value
Nc1ncnc2c1ncn2[C@@H]1O[C@H](COP(=O)(O)OP(=O)(O)NP(=O)(O)O)[C@@H](O)[C@H]1O [adenylyl imidodiphosphate],NP40-soluble protein abundance,[1]; concentration: 1mM,1.013 ± 0.01
same,NP40-soluble protein abundance,[1]; concentration: 2mM,0.983 ± 0.055
same,NP40-soluble protein abundance,[1]; concentration: 4mM,0.997 ± 0.033
same,NP40-soluble protein abundance,[1]; concentration: 6mM,0.986 ± 0.018
same,NP40-soluble protein abundance,[1]; concentration: 8mM,0.986 ± 0.027
same,NP40-soluble protein abundance,[1]; concentration: 10mM,0.977 ± 0.059
same,NP40-soluble protein abundance,UniProt Q16514-2|Q16514; concentration: 1mM,1.03 ± 0.024
same,NP40-soluble protein abundance,UniProt Q16514-2|Q16514; concentration: 2mM,1.08 ± 0.048
same,NP40-soluble protein abundance,UniProt Q16514-2|Q16514; concentration: 4mM,1.07 ± 0.026
same,NP40-soluble protein abundance,UniProt Q16514-2|Q16514; concentration: 6mM,1.06 ± 0.023
same,NP40-soluble protein abundance,UniProt Q16514-2|Q16514; concentration: 8mM,1.07 ± 0.056
same,NP40-soluble protein abundance,UniProt Q16514-2|Q16514; concentration: 10mM,1.09 ± 0.086
same,NP40-soluble protein abundance,[2]; concentration: 1mM,1.033 ± 0.0094
same,NP40-soluble protein abundance,[2]; concentration: 2mM,1.04 ± 0.038
same,NP40-soluble protein abundance,[2]; concentration: 4mM,1.025 ± 0.0096
same,NP40-soluble protein abundance,[2]; concentration: 6mM,1.01 ± 0.022
same,NP40-soluble protein abundance,[2]; concentration: 8mM,0.976 ± 0.019
same,NP40-soluble protein abundance,[2]; concentration: 10mM,0.98 ± 0.013
same,NP40-soluble protein abundance,[3]; concentration: 1mM,1.032 ± 0.0089
same,NP40-soluble protein abundance,[3]; concentration: 2mM,1.02 ± 0.024
same,NP40-soluble protein abundance,[3]; concentration: 4mM,1.02 ± 0.03
same,NP40-soluble protein abundance,[3]; concentration: 6mM,0.999 ± 0.026
same,NP40-soluble protein abundance,[3]; concentration: 8mM,1.03 ± 0.022
same,NP40-soluble protein abundance,[3]; concentration: 10mM,1.01 ± 0.022

# A different layout for some results above:
smiles	measurement	setting	value
Nc1ncnc2c1ncn2[C@@H]1O[C@H](COP(=O)(O)OP(=O)(O)NP(=O)(O)O)[C@@H](O)[C@H]1O [adenylyl imidodiphosphate]	NP40-soluble protein abundance	UniProt Q16514-2|Q16514; concentration: 2mM	1.08 ± 0.048
same	NP40-soluble protein abundance	UniProt Q16514-2|Q16514; concentration: 8mM	1.07 ± 0.056
